Results are given in words; binding and its absence hold for the method and conditions named. Some entries that bind do so weakly or less than the wild type.
Assays:
[1] = target: BSA (bovine) (UniProt P02769); assay: ELISA, antigen coated 50 ng/well, nanobody 100 ng/well, anti-Flag detection
[2] = target: 重组人碱性成纤维细胞生长因子(bFGF) (human) (UniProt P09038); assay: as above
[3] = target: 重组人碱性成纤维细胞生长因子(bFGF) (human) (UniProt P09038); assay: competition ELISA, FGFR2 varied 0-1 μg against 100 ng nanobody on 50 ng coated bFGF

Sequences of proteins named here, by UniProt entry; tags and fusion partners are left off. Residues count along the entry.
UniProt P02769, residues 25-607: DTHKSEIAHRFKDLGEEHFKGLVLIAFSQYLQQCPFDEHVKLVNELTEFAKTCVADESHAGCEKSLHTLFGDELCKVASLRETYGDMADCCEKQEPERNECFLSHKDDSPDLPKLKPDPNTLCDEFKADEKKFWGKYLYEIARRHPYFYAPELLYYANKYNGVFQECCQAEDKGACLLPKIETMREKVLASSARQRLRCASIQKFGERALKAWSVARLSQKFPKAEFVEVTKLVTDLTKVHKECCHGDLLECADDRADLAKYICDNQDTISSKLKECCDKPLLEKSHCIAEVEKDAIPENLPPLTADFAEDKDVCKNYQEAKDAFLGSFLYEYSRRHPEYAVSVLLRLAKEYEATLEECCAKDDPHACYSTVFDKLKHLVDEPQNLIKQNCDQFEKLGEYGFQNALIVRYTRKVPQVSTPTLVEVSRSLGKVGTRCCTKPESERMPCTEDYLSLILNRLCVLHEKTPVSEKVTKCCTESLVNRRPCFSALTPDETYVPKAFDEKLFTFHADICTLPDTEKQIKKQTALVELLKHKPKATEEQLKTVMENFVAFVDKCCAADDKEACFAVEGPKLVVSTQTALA
UniProt P09038, residues 143-288: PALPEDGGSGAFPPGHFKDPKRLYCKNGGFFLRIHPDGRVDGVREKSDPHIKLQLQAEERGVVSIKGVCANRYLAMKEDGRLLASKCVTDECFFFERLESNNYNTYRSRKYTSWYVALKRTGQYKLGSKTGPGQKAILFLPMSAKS

Binder | binding [1] | binding [2] | binding [3]
抗bFGF纳米抗体 Nb5 (VHH) VHH: LQESGGGLVQAGGSLRLSCAASGRTFSSGAMGWFRQAPGKEPEFVATITWDGGTTYYADSVKGRYTISRDNAKNTVYLQMNDLKPEDTAVYSCAARSYSEAYYLIGSSDYNYWGQGTQVTVSS | binds | binds | –
抗bFGF纳米抗体 Nb6 (VHH) VHH: LQESGGDLVQPGGSLRLSCEVSGSNFSINDMGWYRQAPGKRREVVAGISSVGRTMYGDPVKGRFTISRDNAKNMVYLQMNRLKPEDTAVYYCHLYGDYRGTGFWGKGTQVTVSS | binds | binds | –
抗bFGF纳米抗体 Nb1 (VHH) VHH: LQESGGDLVQPGGSLRLSCEVSGSNFSNNDMGWYRQAPGKQREVVAGISSVGRTMYGDPVKGRFTISRDNAKNMVYLQMNRLKAKDTAVYYCHLYGDYRGTGFWGKGTQVTVSS | binds | binds | –
抗bFGF纳米抗体 Nb2 (VHH) VHH: LQESGGDLVQPGGSLRLSCEVSGSNFSINDMGWYRQAPGKRREVVAGISSVGRAMYADPVKGRFTISRDNAKNMVYLQMNRLKPEDTAVYYCYLYGDYRGTGFWGKGTQVTVSS | binds | binds | binds
抗bFGF纳米抗体 Nb3 (VHH) VHH: LQESGGDLVQPGGSLRLSCEVSGSNFSINDMGWYRQAPGKRREVVAGISSVGRTMYADPVKGRFTISRDNAKNMVYLQMNRLKPEDTAVYYCHLYGDYRGTGFWGKGTQVTVSS | binds | binds | –
